In paper PMC3630190:
No constants are given. Whether binding was seen depends on the method and setting. In cells and extracts the contact can be indirect. Sequences can lack the tags named with a protein. Blank lines part the entries; values can stand above or below the binder they belong to.

Target: β-tubulin (mouse (endogenous in C3H10T1/2))
Assay: co-IP; 100 µg whole cell extract of transfected C3H10T1/2 cells (50 mM Tris/HCl pH 8.0, 120 mM NaCl, 0.5% NP-40, 1 mM EDTA); endogenous acetylated tubulin, Smo or β-tubulin immunoprecipitated overnight at 4°C with antibody and Protein A/G+ or G+ agarose; tagged RGS protein detected by α-FLAG or α-HA immunoblot

binding: no binding
B1: FL-hRGS5 (human Regulator of G-Protein Signaling 5 with an N-terminal FLAG epitope tag) (protein, UniProt O15539 1-181)
chain: MCKGLAALPHSCLERAKEIKIKLGILLQKPDSVGDLVIPYNEKPEKPAKTQKTSLDEALQWRDSLDKLLQNNYGLASFKSFLKSEFSEENLEFWIACEDYKKIKSPAKMAEKAKQIYEEFIQTEAPKEVNIDHFTKDITMKNLVEPSLSSFDMAQKRIHALMEKDSLPRFVRSEFYQELIK

binding: no binding
B2: hRGS5-FL (human Regulator of G-Protein Signaling 5 with a C-terminal FLAG epitope tag) (protein, UniProt O15539 1-181)
chain: B1 chain
